Reference: publication PMC10163288
The other results are listed elsewhere or left out.

B1: il2ra_site2_3nfp_normal_mot_49a7c9051cacde34b31d84fabeb7f3ea_0001_af2_000000030_0001_39_52_H_._HHH_b2_06514_af2_0001_0000400008_0000001_1 (protein)
chain: SSSSDEEEEELEKLQELLKRLKEEGDRFELLRVLLRASQLAAKLGDREAVRIELKLYEELASSSS
B2: il2ra_site1_1z92_sap_24_mot_HHH_b1_05516_af2_000000202_0001_21_38_H_._HHH_b1_02137_0001_0000200010_0000001_0_0001 (protein)
chain: DEKEEIERLLREAGAPPELIELVEEVFEIQAQYSERAARFVVEQVERKVRKGNPEKAEKLLRKLL
B3: il2ra_site2_3nfp_sap_17_mot_HHH_b2_06150_000000217_0001_39_53_H_._HHH_b2_05191_0001_0000100001_0000001_0_0001 (protein)
chain: SSSKAEEYVEAALELARDALEAGNPELAKRHIHVAEQVAELLGDEELEELLKELLEEVERGSSSS
B4: il2ra_site1_1z92_sap_9_mot_32063319e58c7a3ce97db74413982e08_0001_1_000000206_0001_18_33_H_._HHH_b2_02076_0001_0000300012_0000001_0_0001 (protein)
chain: SSSSNLEELIRFLFEDLELLLEHGNEHAFKWALELLERLAKRHNDEEAEELVRRIEELRENSSSS
B5: il2ra_site2_2erj_sap_13_mot_HHH_b1_03114_000000021_0001_1_16_H_._HHH_b1_00339_0001_0000900017_0000001_0_0001 (protein)
chain: SSSSLRELYELRARILELLARGDLEEAERLLEELRKLAEETNSPNVEEAVEDLERRIREDLSSSS
B6: il2ra_site1_1z92_normal_mot_01209686ea234b34325f918445e6eade_0001_af2_000000154_0001_18_33_H_._HHH_b1_01979_0001_0000200020_0000001_0_af2pred_0001_af2pred_1_swa … (protein)
chain: SSSSDELERFAQEVVEELVEEFGLDEHDKEALEKAAELAVKAGLSERAIELALRRAAELASSSSS
B7: il2ra_site2_3nfp_sap_20_mot_ems_3hM_287_af2_000000177_0001_46_64_H_._HHH_b1_03267_af2_0001_0000400046_0000001_0_0001 (protein)
chain: SSSSSDHEFYERVLELLKEANKISDPEERREVLEEAERLAEEAGSEVLKRSVEWVAKLLNSSSSS
B8: il2ra_site2_2erj_normal_mot_HHH_b1_06259_af2_000000246_0001_1_17_H_._HHH_b1_02157_af2_0001_0000300038_0000001_0 (protein)
chain: SSSSDREEEIVREIVEELGLDEYVQLFLELTARFALEAGASEEEVERDLRESAEIFEEAESSSSS
B9: il2ra_site1_2b5i_normal_mot_HHH_b2_04910_000000118_0001_1_19_H_._HHH_b1_04704_af2_0001_0000100014_0000001_1_af2pred_dldesign_0_af2pred (protein)
chain: SSSSSAETEEALRLFLEADKLFKEGKLEETKELLEKALELAKKGKDNTLVRMIESALEDLESSSS
B10: il2ra_site2_2erj_sap_20_mot_12d8a9d2629acc90dc040184e432c6f0_0001_000000022_0001_16_30_H_._HHH_b1_00265_0001_0000200004_0000001_0_0001 (protein)
chain: SSSSDVEEEVRRLLEEAQELREEGDPKKVLELLLEAFELAMENRDEEAAKLINRVFEELDKSSSS
B11: il2ra_site1_2b5i_normal_mot_HHH_b2_04910_000000118_0001_1_19_H_._HHH_b2_04254_0001_0000100007_0000001_0_af2pred_0001_af2pred (protein)
chain: SSSSDEAQEELRELLEEADELFKQGNDEEARRVLEKAEELAEELNSESAFRSVEAMLRILSSSSS
B12: il2ra_site1_3nfp_normal_mot_HHH_b1_01417_af2_000000204_0001_1_19_H_._HHH_b1_00894_0001_0000700059_0000001_0 (protein)
chain: SSSSNAAERFTEEAERLAKELGDEELVELLRELLEEAQEKGDARVARELIKVIAKVQLKYRSSSS
B13: il2ra_site2_3nfp_normal_mot_HHH_b2_01155_000000159_0001_38_52_H_._c393a752425a4fe2e67a9f8335af7c62_0001_1_0001_0000200010_0000001_0 (protein)
chain: SKEEEAKESAKKANNPEAEEIVERVEELLREGDPEKLRELLARVTHEAYERRDPDLFYVIAILAF
B14: il2ra_site1_2b5i_sap_4_mot_HHH_b1_05282_000000062_0001_1_18_H_._HHH_b2_07833_0002_0000100001_0000001_0_0001_af2pred_dldesign_0_af2pred (protein)
chain: SSSSDDEIYDLYKKALELYRAGKKEEAEKVLEEALELAKKAGSKKIEKEIEYLLKYVKKLSSSSS
B15: il2ra_site1_2b5i_sap_10_mot_2d25717a5c0121ea846597d88a9db610_0001_1_000000082_0001_1_13_H_._HHH_b1_03920_af2_0002_0000300009_0000001_1_0001 (protein)
chain: SSSSSDLERMVEELLEEAEELREEGNPHRARSIVHLALAVARAARDPELERLVEEILERISSSSS
B16: il2ra_site2_3nfp_normal_mot_HHH_b1_01086_af2_000000264_0001_39_53_H_._HHH_b1_06634_0001_0000100007_0000001_0_1_af2pred_0001_af2pred_1 (protein)
chain: SSSSDEVERRVEELLEEAKEIDDEEEFEEVLAEASEIALENNDPELLLRIAEVLLEFLERSSSSS
B17: il2ra_site2_2erj_normal_mot_HHH_b1_03107_000000098_0001_39_52_H_._HHH_b2_04977_0001_0000500051_0000001_0 (protein)
chain: SSSSSEERREIFEEIARLSAELAEKGDPELRERLEELLEIAQELGDEAAVRYAEFALRDHSSSSS
B18: il2ra_site2_3nfp_sap_12_mot_HHH_b1_07636_000000295_0001_20_36_H_._ems_3hM_1194_af2_0001_0000400027_0000001_0_0001 (protein)
chain: SSSSDKEWALAAARTLLEVLERNNDEENFEELRRVVEEVEEHGDPRLILELYKLAREIYEKSSSS
B19: il2ra_site1_2b5i_normal_mot_HHH_b2_04910_000000118_0001_1_19_H_._HHH_b2_02918_af2_0001_0000500011_0000001_0_af2pred_0001_af2pred (protein)
chain: SSSSSDAREEAWELMQEANEAFKKGDDERARELLEQALEAAEEANNPSLAKSIRSMLELASSSSS
B20: il2ra_site1_2b5i_normal_mot_HHH_b2_04910_000000118_0001_1_19_H_._HHH_b1_02267_0001_0000600028_0000001_0 (protein)
chain: SSSDESRRARELFHEADELDRNGNPEEAEKVLEEALKLAEEGGSRQLFRMIENALEEIEAGSSSS
B21: il2ra_site1_1z92_normal_mot_8b466c8ab6a4ea9d290724e70e8647ea_0001_000000211_0001_54_65_H_._f5bcb56c74c9f00413c49eba35dae90c_0001_af2_0001_0000200029_0000001_0 (protein)
chain: DLLEELEELLEKENDPALEVLRELEELEKHGDPAAEFALEQIERKLRRGDPEAVKKLLRRFLRSL
B22: il2ra_site1_2b5i_sap_6_mot_HHH_b1_05188_af2_000000065_0001_43_56_H_._HHH_b2_02594_0001_0000300014_0000001_0_0001 (protein)
chain: SSSSDEEQEEVQRLFREASEAKRKGNPEEAERLLEEALELAEKIGDPSAHRDIRRFLELLRSSSS
B23: il2ra_site2_3nfp_normal_mot_HHH_b2_07186_000000286_0001_42_55_H_._HHH_b1_03616_0001_0000300026_0000001_0 (protein)
chain: SSSSSEEERIEELLEELEKAIENNDPEKARELIREILHLIFELKNVELYSRLEELIFRLYSSSSS
B24: il2ra_site2_3nfp_sap_20_mot_HHH_b1_02297_000000279_0001_41_58_H_._HHH_b2_01473_0001_0000500048_0000001_0_0001 (protein)
chain: SSSSDKAEEYLRIALELLEEAIEAGDKESAKSHLETAKAAAESRNDEEVKEELEKLEELLSSSSS

molecular target: il2ra, P01589; test: yeast display titration

Apparent Kd, inactive:
B1 no binding seen
B2 > 1.56 nM
B3 no binding seen
B4 no binding seen
B5 no binding seen
B6 no binding seen
B7 > 271 nM
B8 no binding seen
B9 no binding seen
B10 no binding seen
B11 no binding seen
B12 no binding seen
B13 no binding seen
B14 no binding seen
B15 no binding seen
B16 no binding seen
B17 no binding seen
B18 no binding seen
B19 no binding seen
B20 no binding seen
B21 no binding seen
B22 no binding seen
B23 no binding seen
B24 no binding seen

Quoted from above (2 entries):
Apparent Kd, inactive:
B20 no binding seen
B21 no binding seen
